No constants are given. Whether binding was seen depends on the method and setting. Some entries that bind do so weakly or less than the wild type.
Biological target: AR1FLAG (human) (UniProt P17181)
Test: phage ELISA on biotinylated AR1FLAG, positive clones chosen

Protein sequences, listed by entry. Tags and fused reporters are not part of them. Residues count along the entry.
UniProt P17181, residues 28-436: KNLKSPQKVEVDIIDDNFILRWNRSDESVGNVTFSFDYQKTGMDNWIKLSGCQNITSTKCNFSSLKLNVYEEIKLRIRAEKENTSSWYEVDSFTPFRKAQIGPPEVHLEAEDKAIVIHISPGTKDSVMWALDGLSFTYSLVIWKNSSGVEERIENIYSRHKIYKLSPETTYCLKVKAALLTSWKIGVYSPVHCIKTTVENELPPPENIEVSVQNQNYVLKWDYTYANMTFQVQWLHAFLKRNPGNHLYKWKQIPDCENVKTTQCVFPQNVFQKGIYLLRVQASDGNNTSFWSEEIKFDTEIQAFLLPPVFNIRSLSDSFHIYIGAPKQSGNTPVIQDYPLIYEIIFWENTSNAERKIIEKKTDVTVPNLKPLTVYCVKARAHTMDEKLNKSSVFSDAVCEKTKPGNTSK

B1: AR1-41 (scFv, V domains shown)
VH: QVQLKQSGAELVRPGASVRLSCKASGYTFTFYWINWIKQRPEQGLEWIGRIDPYDSETRYNQKFKDKAILTVDKYSSTAYMQLSSLTSEDSAVYYCAKGVYDGHWFFDVWGAGTSVTVSS
VL: DIVMTQSHKFMSTSVGDRVSITCKASQDVSTAVAWYQQKPGQSPKLLIYSASYRYTGVPARFSGSGSGTDFTFTISSVQTEDLAVYYCQQHYRTPPTFGGGTKLELKR
- binding: binds

B2: AR1-24 (scFv, V domains shown)
VH: QVQLQQSGPELEKPGASVKISCKASGYSFSDYNMNWVKQSNGKSLEWIGNIDPYNGDTNYNQKFKGKATLTLDKSSSTAYMQLKSLTSEDSAVYFCARSRGWLLPFAYWGQGTLVTVSA
VL: DILMTQSQKFMSTSVGDRVSVTCKASQNVGINVAWYQQKPGQSPKALIYSASYRYSGVPDRFTGSGSGTDFTLTISNVQSEDLAEYFCQQYNSYPLTFGGGTKLEIKR
- binding: binds
